PubChem BioAssay AID743121, NCATS – 2013
Aim: 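Genes whose silencing strengthens cell killing by camptothecin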 (primary screen). System: MDA-MB-231 cells, a human breast cancer line. Reagent: single siRNA against human genes, 20 nM siRNA (0.8 pmol per well). Timing: 120 h (drug added 48 h after transfection, read 72 h later). Conditions: camptothecin 20 nM (about EC30) for 72 h; vehicle 0.1% DMSO in parallel plates. Detection: 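CellTiter-Glo ATP signal, scaled to control siRNA as percent viability; sensitisation given as log2 of untreated divided by camptothecin-treated viability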. Direction: log2 vehicle/camptothecin viability: higher = stronger sensitisation to camptothecin; viability with camptothecin and viability without drug: higher = more viable cells. Active means: 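Active genes have an RSA gene-level p-value below 0.001, computed from the ratios of their separate siRNAs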.
The deposit covers about 26,000 reagents; shown is an unselected part. 167 of all reagents (0.63%) were called active. 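Calls are per gene from RSA p-values that are not deposited; an individual active-marked siRNA can sensitise only weakly.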 The numbers tell different reagents against one gene apart.

gene symbol | siRNA no. | log2 vehicle/camptothecin viability | viability with camptothecin (% of control) | viability without drug (% of control) | activity call
PDPK1 (GeneID 5170) | 1 | 0.209 | 35.4 | 40.9 | inactive
PDPK1 (GeneID 5170) | 2 | -0.102 | 74.7 | 69.6 | inactive
PDPK1 (GeneID 5170) | 3 | -0.223 | 48.6 | 41.6 | inactive
PDPK1 (GeneID 5170) | 4 | 0.357 | 72.4 | 92.8 | inactive
IL23A (GeneID 51561) | 1 | 0.0668 | 103 | 108 | inactive
IL23A (GeneID 51561) | 2 | -0.107 | 81.6 | 75.8 | inactive
IL23A (GeneID 51561) | 3 | -0.105 | 51.1 | 47.5 | inactive
IL23A (GeneID 51561) | 4 | -0.284 | 65.1 | 53.4 | inactive
HUNK (GeneID 30811) | 1 | -0.569 | 34.1 | 23 | inactive
HUNK (GeneID 30811) | 2 | -0.351 | 53 | 41.5 | inactive
HUNK (GeneID 30811) | 3 | 0.321 | 63.3 | 79.1 | inactive
HUNK (GeneID 30811) | 4 | -0.117 | 109 | 101 | inactive
SAXO6 (GeneID 56890) | 1 | -0.0574 | 90.1 | 86.6 | inactive
SAXO6 (GeneID 56890) | 2 | -0.00442 | 78.3 | 78.1 | inactive
SAXO6 (GeneID 56890) | 3 | -0.129 | 84.6 | 77.4 | inactive
SAXO6 (GeneID 56890) | 4 | -0.356 | 81.2 | 63.5 | inactive
GALK1 (GeneID 2584) | 1 | -0.529 | 95.9 | 66.4 | inactive
GALK1 (GeneID 2584) | 2 | -0.491 | 90.6 | 64.5 | inactive
GALK1 (GeneID 2584) | 3 | -0.467 | 89.4 | 64.7 | inactive
GALK1 (GeneID 2584) | 4 | 0.0329 | 57.8 | 59.1 | inactive
TUBA1A (GeneID 7846) | 1 | -0.0597 | 100 | 96.2 | inactive
TUBA1A (GeneID 7846) | 2 | 0.133 | 27.3 | 30 | inactive
TUBA1A (GeneID 7846) | 3 | -0.675 | 82 | 51.4 | inactive
TUBA1A (GeneID 7846) | 4 | -0.329 | 70.8 | 56.4 | inactive
TUBGCP2 (GeneID 10844) | 1 | -5.98 | 100 | 1.59 | inactive
TUBGCP2 (GeneID 10844) | 2 | 0.322 | 61.3 | 76.6 | inactive
TUBGCP2 (GeneID 10844) | 3 | 0.119 | 75.9 | 82.4 | inactive
TUBGCP2 (GeneID 10844) | 4 | -0.14 | 104 | 94.5 | inactive
CCL26 (GeneID 10344) | 1 | -0.157 | 88.3 | 79.2 | inactive
CCL26 (GeneID 10344) | 2 | -0.152 | 72.5 | 65.2 | inactive
CCL26 (GeneID 10344) | 3 | 0.0398 | 92.1 | 94.7 | inactive
CCL26 (GeneID 10344) | 4 | 0.184 | 27 | 30.6 | inactive
SLC6A11 (GeneID 6538) | 1 | 0.0149 | 75.8 | 76.6 | inactive
SLC6A11 (GeneID 6538) | 2 | -0.0157 | 103 | 102 | inactive
SLC6A11 (GeneID 6538) | 3 | 0.304 | 68.9 | 85.1 | inactive
SLC6A11 (GeneID 6538) | 4 | 0.185 | 67.1 | 76.3 | inactive
FOXN3 (GeneID 1112) | 1 | -0.241 | 122 | 103 | inactive
FOXN3 (GeneID 1112) | 2 | -0.333 | 59.1 | 47 | inactive
FOXN3 (GeneID 1112) | 3 | -0.535 | 98.2 | 67.8 | inactive
FOXN3 (GeneID 1112) | 4 | -0.189 | 114 | 100 | inactive
CXCR6 (GeneID 10663) | 1 | -0.062 | 79.2 | 75.9 | inactive
CXCR6 (GeneID 10663) | 2 | 0.0324 | 50.1 | 51.2 | inactive
CXCR6 (GeneID 10663) | 3 | 0.21 | 67.1 | 77.6 | inactive
CXCR6 (GeneID 10663) | 4 | -0.0422 | 40.4 | 39.2 | inactive
VARS1 (GeneID 7407) | 1 | -0.522 | 45 | 31.3 | inactive
VARS1 (GeneID 7407) | 2 | -0.192 | 61.7 | 54 | inactive
VARS1 (GeneID 7407) | 3 | -0.438 | 71.7 | 52.9 | inactive
TAF15 (GeneID 8148) | 1 | -0.106 | 99.1 | 92.1 | inactive
TAF15 (GeneID 8148) | 2 | -0.174 | 93.3 | 82.8 | inactive
TAF15 (GeneID 8148) | 3 | -0.119 | 71.8 | 66.1 | inactive
ATP5F1A (GeneID 498) | 1 | -0.186 | 39.2 | 34.5 | inactive
ATP5F1A (GeneID 498) | 2 | -0.194 | 64.7 | 56.5 | inactive
ATP5F1A (GeneID 498) | 3 | -0.121 | 99.6 | 91.6 | inactive
ATP5F1A (GeneID 498) | 4 | -0.12 | 41.3 | 38 | inactive
ZIC3 (GeneID 7547) | 1 | -0.125 | 55.8 | 51.2 | inactive
ZIC3 (GeneID 7547) | 2 | -0.307 | 114 | 92.4 | inactive
ZIC3 (GeneID 7547) | 3 | -0.261 | 72.2 | 60.2 | inactive
ZIC3 (GeneID 7547) | 4 | 0.14 | 71 | 78.2 | inactive
NSUN4 (GeneID 387338) | 1 | -0.178 | 75.5 | 66.7 | inactive
NSUN4 (GeneID 387338) | 2 | -0.689 | 81.7 | 50.6 | inactive
NSUN4 (GeneID 387338) | 3 | -0.414 | 68.2 | 51.2 | inactive
NSUN4 (GeneID 387338) | 4 | 0.138 | 101 | 111 | inactive
HIPK3 (GeneID 10114) | 1 | -0.462 | 121 | 88.2 | inactive
HIPK3 (GeneID 10114) | 2 | -0.284 | 86.6 | 71.1 | inactive
HIPK3 (GeneID 10114) | 3 | -0.307 | 69.3 | 56 | inactive
HIPK3 (GeneID 10114) | 4 | 0.0204 | 68.7 | 69.7 | inactive
NTS (GeneID 4922) | 1 | -0.109 | 60.2 | 55.9 | inactive
NTS (GeneID 4922) | 2 | -0.0282 | 44.6 | 43.7 | inactive
NTS (GeneID 4922) | 3 | 0.0597 | 84.5 | 88.1 | inactive
NTS (GeneID 4922) | 4 | 0.417 | 64.4 | 86 | inactive
STX3 (GeneID 6809) | 1 | -0.151 | 92.3 | 83.1 | inactive
STX3 (GeneID 6809) | 2 | -0.112 | 73.7 | 68.2 | inactive
STX3 (GeneID 6809) | 3 | -0.165 | 107 | 95.5 | inactive
APAF1 (GeneID 317) | 1 | -0.113 | 70.4 | 65.1 | inactive
APAF1 (GeneID 317) | 2 | -0.215 | 121 | 104 | inactive
APAF1 (GeneID 317) | 3 | -0.281 | 134 | 110 | inactive
APAF1 (GeneID 317) | 4 | -0.378 | 96.6 | 74.3 | inactive
PEX1 (GeneID 5189) | 1 | -0.446 | 88.4 | 64.9 | inactive
PEX1 (GeneID 5189) | 2 | 0.816 | 31.8 | 55.9 | inactive
PEX1 (GeneID 5189) | 3 | 0.335 | 71.5 | 90.2 | inactive
PEX1 (GeneID 5189) | 4 | -0.284 | 32.2 | 26.5 | inactive
OR7A17 (GeneID 26333) | 1 | 0.282 | 79.7 | 96.9 | inactive
OR7A17 (GeneID 26333) | 2 | 0.756 | 51 | 86.1 | inactive
OR7A17 (GeneID 26333) | 3 | 0.256 | 59 | 70.4 | inactive
OR7A17 (GeneID 26333) | 4 | -0.33 | 75.4 | 60 | inactive
IL21 (GeneID 59067) | 1 | -0.234 | 117 | 99.4 | inactive
IL21 (GeneID 59067) | 2 | 0.474 | 59.3 | 82.3 | inactive
IL21 (GeneID 59067) | 3 | -0.453 | 94.2 | 68.8 | inactive

Individual results from above:
Under “viability with camptothecin (% of control)”, CCL26 (GeneID 10344) #3 shows 92.1
APAF1 (GeneID 317) #4, log2 vehicle/camptothecin viability: -0.378
Entry of NSUN4 (GeneID 387338) #2 in “activity call”: inactive
Value for HIPK3 (GeneID 10114) #1 in “activity call”: inactive
For “log2 vehicle/camptothecin viability”, CXCR6 (GeneID 10663) #4 has -0.0422
TUBGCP2 (GeneID 10844) #2, viability with camptothecin (% of control): 61.3
